Data taken from article PMC3253059.
These are yes or no findings as the source states them, for the method shown. Binding seen in cells or lysates may run through a third protein. Some entries that bind do so weakly or less than the wild type.

Amino acid sequences for entries named in this document (tags omitted). Residues count along the entry.
UniProt Q00960, residues 27-1482: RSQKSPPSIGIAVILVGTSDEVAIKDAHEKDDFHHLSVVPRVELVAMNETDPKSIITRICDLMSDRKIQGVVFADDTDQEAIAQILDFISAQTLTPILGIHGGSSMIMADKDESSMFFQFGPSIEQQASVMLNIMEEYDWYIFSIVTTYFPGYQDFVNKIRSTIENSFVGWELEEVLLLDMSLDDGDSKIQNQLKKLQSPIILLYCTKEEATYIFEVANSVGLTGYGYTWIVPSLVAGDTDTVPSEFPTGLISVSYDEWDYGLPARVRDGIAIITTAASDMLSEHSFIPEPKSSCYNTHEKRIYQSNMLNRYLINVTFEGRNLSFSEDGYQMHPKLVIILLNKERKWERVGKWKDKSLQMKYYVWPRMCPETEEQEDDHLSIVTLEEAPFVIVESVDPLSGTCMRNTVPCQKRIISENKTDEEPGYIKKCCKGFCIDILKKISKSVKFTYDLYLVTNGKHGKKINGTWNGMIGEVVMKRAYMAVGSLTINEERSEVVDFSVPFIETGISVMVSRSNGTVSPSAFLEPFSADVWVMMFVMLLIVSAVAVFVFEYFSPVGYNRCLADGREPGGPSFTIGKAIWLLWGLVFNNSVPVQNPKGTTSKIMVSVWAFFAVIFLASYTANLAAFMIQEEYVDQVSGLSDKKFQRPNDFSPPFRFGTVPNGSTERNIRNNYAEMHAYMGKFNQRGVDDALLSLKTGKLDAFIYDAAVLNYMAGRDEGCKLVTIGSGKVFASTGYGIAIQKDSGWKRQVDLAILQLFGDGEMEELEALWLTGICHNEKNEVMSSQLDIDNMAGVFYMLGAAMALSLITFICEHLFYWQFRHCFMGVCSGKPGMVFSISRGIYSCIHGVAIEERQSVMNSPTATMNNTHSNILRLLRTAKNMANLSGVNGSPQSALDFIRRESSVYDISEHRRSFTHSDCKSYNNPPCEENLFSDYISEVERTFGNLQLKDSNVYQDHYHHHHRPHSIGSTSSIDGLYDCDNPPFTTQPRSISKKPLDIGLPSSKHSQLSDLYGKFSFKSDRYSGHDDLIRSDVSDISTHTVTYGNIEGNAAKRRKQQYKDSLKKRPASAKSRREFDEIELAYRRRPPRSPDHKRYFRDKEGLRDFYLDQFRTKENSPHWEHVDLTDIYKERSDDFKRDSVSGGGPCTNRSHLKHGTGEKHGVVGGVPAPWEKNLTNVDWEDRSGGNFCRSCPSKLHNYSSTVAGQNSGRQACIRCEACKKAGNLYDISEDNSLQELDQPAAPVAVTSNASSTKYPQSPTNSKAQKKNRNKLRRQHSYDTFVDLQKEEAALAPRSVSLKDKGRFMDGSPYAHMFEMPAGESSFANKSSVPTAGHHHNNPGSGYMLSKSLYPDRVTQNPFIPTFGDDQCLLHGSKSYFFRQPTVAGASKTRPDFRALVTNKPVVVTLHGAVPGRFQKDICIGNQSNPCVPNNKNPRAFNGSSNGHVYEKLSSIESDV

B1: atypical protein kinase C zeta (PKCζ) (enzyme, UniProt P09217 1-592)
chain: MPSRTDPKMDRSGGRVRLKAHYGGDILITSVDPTTTFQDLCEEVRDMCGLHQQHPLTLKWVDSEGDPCTVSSQMELEEAFRLACQGRDEVLIIHVFPSIPEQPGMPCPGEDKSIYRRGARRWRKLYRANGHLFQAKRFNRRAYCGQCSERIWGLARQGYRCINCKLLVHKRCHVLVPLTCRRHMDSVMPSQEPPVDDKNDGVDLPSEETDGIAYISSSRKHDNIKDDSEDLKPVIDGVDGIKISQGLGLQDFDLIRVIGRGSYAKVLLVRLKKNDQIYAMKVVKKELVHDDEDIDWVQTEKHVFEQASSNPFLVGLHSCFQTTSRLFLVIEYVNGGDLMFHMQRQRKLPEEHARFYAAEICIALNFLHERGIIYRDLKLDNVLLDADGHIKLTDYGMCKEGLGPGDTTSTFCGTPNYIAPEILRGEEYGFSVDWWALGVLMFEMMAGRSPFDIITDNPDMNTEDYLFQVILEKPIRIPRFLSVKASHVLKGFLNKDPKERLGCRPQTGFSDIKSHAFFRSIDWDLLEKKQTLPPFQPQITDDYGLDNFDTQFTSEPVQLTPDDEDVIKRIDQSEFEGFEYINPLLLSAEESV
B2: P2X3 receptor (receptor, UniProt P49654 1-397)
chain: MNCISDFFTYETTKSVVVKSWTIGIINRAVQLLIISYFVGWVFLHEKAYQVRDTAIESSVVTKVKGFGRYANRVMDVSDYVTPPQGTSVFVIITKMIVTENQMQGFCPENEEKYRCVSDSQCGPERFPGGGILTGRCVNYSSVLRTCEIQGWCPTEVDTVEMPIMMEAENFTIFIKNSIRFPLFNFEKGNLLPNLTDKDIKRCRFHPEKAPFCPILRVGDVVKFAGQDFAKLARTGGVLGIKIGWVCDLDKAWDQCIPKYSFTRLDGVSEKSSVSPGYNFRFAKYYKMENGSEYRTLLKAFGIRFDVLVYGNAGKFNIIPTIISSVAAFTSVGVGTVLCDIILLNFLKGADHYKARKFEEVTETTLKGTASTNPVFASDQATVEKQSTDSGAYSIGH

Target: NR2B subunit of the NMDA receptor (rat (endogenous in lumbar spinal dorsal horn)) (UniProt Q00960)
Experiment: co-IP; rabbit anti-NR2B antibody (5 μg) on Protein G Dynabeads; 500 μg of spinal dorsal horn lysate from naïve rats (RIPA buffer + 0.5% DOC), incubated overnight; eluate blotted for NR2B, PKCζ, CREB and P2X3

| Binder | binding |
| --- | --- |
| B1 | binds |
| B2 | no binding |
